No constants are given. Whether binding was seen depends on the method and setting. In cells and extracts the contact can be indirect. Some results given as binding are weak or reduced against the parent protein; the word gives no strength. Where a sequence is shown, tags or fusion partners need not be part of it.
T1: Flag-Brap2 WT (BRCA1-associated protein 2) (human) (UniProt Q7Z569)
T1 sequence: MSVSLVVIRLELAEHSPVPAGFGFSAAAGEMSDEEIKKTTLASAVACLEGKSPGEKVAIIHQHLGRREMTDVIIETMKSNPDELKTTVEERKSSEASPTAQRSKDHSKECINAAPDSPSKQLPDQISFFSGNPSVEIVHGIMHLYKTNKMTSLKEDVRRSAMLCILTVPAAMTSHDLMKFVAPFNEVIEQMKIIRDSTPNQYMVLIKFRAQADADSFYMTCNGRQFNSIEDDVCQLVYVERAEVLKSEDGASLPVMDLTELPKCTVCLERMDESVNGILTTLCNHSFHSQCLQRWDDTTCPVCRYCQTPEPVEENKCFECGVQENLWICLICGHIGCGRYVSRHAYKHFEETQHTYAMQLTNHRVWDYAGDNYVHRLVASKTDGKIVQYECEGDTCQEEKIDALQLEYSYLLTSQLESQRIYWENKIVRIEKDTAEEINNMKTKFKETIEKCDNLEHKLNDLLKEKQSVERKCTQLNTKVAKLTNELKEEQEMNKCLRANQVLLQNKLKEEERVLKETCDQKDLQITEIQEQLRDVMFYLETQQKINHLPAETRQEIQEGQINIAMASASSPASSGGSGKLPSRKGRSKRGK

Amino acid sequences for entries named in this document (tags omitted).
UniProt Q13616: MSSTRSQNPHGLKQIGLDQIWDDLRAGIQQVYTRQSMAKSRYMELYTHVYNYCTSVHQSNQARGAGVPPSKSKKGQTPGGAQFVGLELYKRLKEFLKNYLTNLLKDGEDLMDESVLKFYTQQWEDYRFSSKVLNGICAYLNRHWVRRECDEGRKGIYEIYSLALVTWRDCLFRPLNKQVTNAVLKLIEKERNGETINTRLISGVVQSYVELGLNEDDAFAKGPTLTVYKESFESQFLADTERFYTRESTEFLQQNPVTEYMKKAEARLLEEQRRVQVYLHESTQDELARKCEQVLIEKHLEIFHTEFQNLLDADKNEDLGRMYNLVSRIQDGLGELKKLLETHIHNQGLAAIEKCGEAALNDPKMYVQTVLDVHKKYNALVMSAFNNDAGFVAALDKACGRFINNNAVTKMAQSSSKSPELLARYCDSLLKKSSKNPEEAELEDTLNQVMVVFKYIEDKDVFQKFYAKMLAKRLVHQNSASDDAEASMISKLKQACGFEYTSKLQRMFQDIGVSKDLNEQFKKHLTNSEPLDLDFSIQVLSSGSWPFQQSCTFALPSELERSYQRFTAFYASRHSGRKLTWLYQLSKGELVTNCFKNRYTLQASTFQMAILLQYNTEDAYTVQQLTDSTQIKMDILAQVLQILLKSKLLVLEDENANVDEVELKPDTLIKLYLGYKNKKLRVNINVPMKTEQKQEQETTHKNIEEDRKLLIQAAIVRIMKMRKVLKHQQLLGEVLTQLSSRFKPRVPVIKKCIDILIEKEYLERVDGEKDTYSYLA

T2: HA-Brap2 WT (human) (UniProt Q7Z569)
T2 sequence: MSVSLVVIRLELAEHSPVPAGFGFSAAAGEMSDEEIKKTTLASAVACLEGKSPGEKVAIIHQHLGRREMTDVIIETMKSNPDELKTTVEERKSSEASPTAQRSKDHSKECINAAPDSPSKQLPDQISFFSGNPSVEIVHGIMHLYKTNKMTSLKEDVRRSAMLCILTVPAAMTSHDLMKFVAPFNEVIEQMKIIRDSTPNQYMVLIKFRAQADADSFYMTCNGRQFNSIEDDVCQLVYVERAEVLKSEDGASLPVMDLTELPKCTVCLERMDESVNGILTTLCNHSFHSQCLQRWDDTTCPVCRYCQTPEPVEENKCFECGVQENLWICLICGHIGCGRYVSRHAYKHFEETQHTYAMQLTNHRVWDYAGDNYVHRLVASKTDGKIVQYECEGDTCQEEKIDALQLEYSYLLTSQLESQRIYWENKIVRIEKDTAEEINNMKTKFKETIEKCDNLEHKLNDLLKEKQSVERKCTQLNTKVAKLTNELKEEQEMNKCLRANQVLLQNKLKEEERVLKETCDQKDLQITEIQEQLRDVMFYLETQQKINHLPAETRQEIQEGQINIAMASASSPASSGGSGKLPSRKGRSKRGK


Columns and labels:
Assay in all cases: co-IP; transfected HEK293 or HEK293T cells; lysis in 20 mM Tris-HCl pH 7.5, 150 mM NaCl, 1 mM EDTA, 0.5% NP-40; anti-Flag M2 agarose or anti-HA agarose, 2 hours at 4°C; immunoblot; in some panels cells treated with MLN4924, MG132 or 5 ng/ml TNF-α
HA-Cul1 = HA-Cul1 (UniProt Q13616)
[1] = target: T1, Flag-Brap2 WT (BRCA1-associated protein 2) (human)
HA-Brap2 WT (human) = target: T2, HA-Brap2 WT (human)

binding (HA-Cul1) | binding [1] | binding (HA-Brap2 WT (human)) | Binder
binds | binds | – | Flag-Brap2 WT (BRCA1-associated protein 2) (protein, UniProt Q7Z569 1-592) MSVSLVVIRLELAEHSPVPAGFGFSAAAGEMSDEEIKKTTLASAVACLEGKSPGEKVAIIHQHLGRREMTDVIIETMKSNPDELKTTVEERKSSEASPTAQRSKDHSKECINAAPDSPSKQLPDQISFFSGNPSVEIVHGIMHLYKTNKMTSLKEDVRRSAMLCILTVPAAMTSHDLMKFVAPFNEVIEQMKIIRDSTPNQYMVLIKFRAQADADSFYMTCNGRQFNSIEDDVCQLVYVERAEVLKSEDGASLPVMDLTELPKCTVCLERMDESVNGILTTLCNHSFHSQCLQRWDDTTCPVCRYCQTPEPVEENKCFECGVQENLWICLICGHIGCGRYVSRHAYKHFEETQHTYAMQLTNHRVWDYAGDNYVHRLVASKTDGKIVQYECEGDTCQEEKIDALQLEYSYLLTSQLESQRIYWENKIVRIEKDTAEEINNMKTKFKETIEKCDNLEHKLNDLLKEKQSVERKCTQLNTKVAKLTNELKEEQEMNKCLRANQVLLQNKLKEEERVLKETCDQKDLQITEIQEQLRDVMFYLETQQKINHLPAETRQEIQEGQINIAMASASSPASSGGSGKLPSRKGRSKRGK
– | – | binds | Flag-Brap2 KR (lysine-432 replaced with arginine) (protein, UniProt Q7Z569 1-592) MSVSLVVIRLELAEHSPVPAGFGFSAAAGEMSDEEIKKTTLASAVACLEGKSPGEKVAIIHQHLGRREMTDVIIETMKSNPDELKTTVEERKSSEASPTAQRSKDHSKECINAAPDSPSKQLPDQISFFSGNPSVEIVHGIMHLYKTNKMTSLKEDVRRSAMLCILTVPAAMTSHDLMKFVAPFNEVIEQMKIIRDSTPNQYMVLIKFRAQADADSFYMTCNGRQFNSIEDDVCQLVYVERAEVLKSEDGASLPVMDLTELPKCTVCLERMDESVNGILTTLCNHSFHSQCLQRWDDTTCPVCRYCQTPEPVEENKCFECGVQENLWICLICGHIGCGRYVSRHAYKHFEETQHTYAMQLTNHRVWDYAGDNYVHRLVASKTDGKIVQYECEGDTCQEEKIDALQLEYSYLLTSQLESQRIYWENKIVRIERDTAEEINNMKTKFKETIEKCDNLEHKLNDLLKEKQSVERKCTQLNTKVAKLTNELKEEQEMNKCLRANQVLLQNKLKEEERVLKETCDQKDLQITEIQEQLRDVMFYLETQQKINHLPAETRQEIQEGQINIAMASASSPASSGGSGKLPSRKGRSKRGK
